{"source": "paper PMC10126419", "about": "“pyHeart4Fish: Chamber-specific heart phenotype quantification of zebrafish in high-content screens” (Frontiers in Cell and Developmental Biology, 2023)", "key": {"[1]": {"test_system": "zebrafish embryos", "assay": "Toxicity score (ToxScore) at increasing compound concentrations", "conditions": "5–80 µM"}, "[2]": {"test_system": "Tg(myl7:eGFP)^twu34/+ zebrafish embryos", "assay": "Chamber-specific quantitative heart phenotyping with pyHeart4Fish;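 note: embryos exposed 24 h from 24 hpf in 0.2% DMSO egg water, tricaine-anaesthetised, heartbeat videos imaged at 470 nm and hearts analysed chamber by chamber from pixel-intensity beat curves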", "conditions": "20 µM, vs DMSO controls"}}, "note": "Counter-ions that a name gives are not always drawn."}
{"compound": "CN(C)CCN(Cc1cccs1)c1ccccn1", "note": "[Methapyrilene HCl, methapyrilene HCl]", "values": [{"measurement": "ToxScore, highest over tested concentrations", "setting": "[1]", "result": "≤ 2.6"}, {"measurement": "Effect on heart function / morphology: contractility, conduction, arrhythmia, HS, EF", "setting": "[2]", "result": "a slower HR in the ventricle than in the atrium"}]}
